Measured values from paper PMC7819943, “Rice protein-binding microarrays: a tool to detect cis-acting elements near promoter regions in rice”.
The list shows a part of the results.

Protein sequences, listed by entry. Tags and fused reporters are not part of them.
UniProt Q0JBA9, entry or part of it: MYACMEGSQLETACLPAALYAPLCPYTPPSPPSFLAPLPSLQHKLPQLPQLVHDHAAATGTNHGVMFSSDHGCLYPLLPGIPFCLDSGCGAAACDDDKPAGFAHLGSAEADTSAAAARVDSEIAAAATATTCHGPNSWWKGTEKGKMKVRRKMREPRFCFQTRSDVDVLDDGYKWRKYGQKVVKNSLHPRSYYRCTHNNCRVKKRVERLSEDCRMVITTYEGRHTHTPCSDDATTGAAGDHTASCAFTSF

Molecular target: OsWRKY34 (Oryza sativa, UniProt Q0JBA9 1-250)
Test: protein-binding microarray (RPBM); PBS, 2% BSA, 51.3 ng/ul salmon testes DNA, 50 uM zinc acetate, 200 nM TF, 25 C, 1 h; high values mean tight binding
Conditions: protein: recombinant; tags: N-terminal polyhistidine and DsRed monomer fusion (pET32a); label: CyDye5-dUTP incorporated in the synthesized complementary strand; 3' TTTTT single-stranded linker to array surface; dsDNA, one strand shown
In short: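 The binding signal for each feature is its fluorescence intensity in arbitrary units. An Axon 4000B scanner was used to read a custom Agilent array that had been made double-stranded with Cy5-dUTP primer extension, blocked with 2% BSA, incubated at 25 °C for 1 h with 200 nM protein in PBS, 2% BSA, salmon testes DNA and 50 µM zinc acetate, and washed. The protein was an N-terminal polyhistidine–DsRed transcription factor fusion from E. coli BL21-CodonPlus, purified on Ni–NTA.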

Question: How did the binding signal turn out when “GGTTATCATTCTGTTCCAAGTCAATTCTTGCATCAATAACCGGAGTCACCTAGTGCAG” was run?
Answer: The binding signal was 13200 fluorescence intensity (a.u.).

Question: How did the binding signal turn out when “TTTAAACCATGTTCTGTCCTATCAGTTTTCACTTGCTACTCGGAGTCACCTAGTGCAG” was run?
Answer: Its binding signal is 9800 fluorescence intensity (a.u.).

Question: “GCACTTTTTTTATTTTCAACCGGAACTAAAGATTATTTTTCGGAGTCACCTAGTGCAG” was tested. Which binding signal did it give?
Answer: Its binding signal is 8340 fluorescence intensity (a.u.).

Question: For “TGCATTGACCAGGTCAACGGGAGAGGGAGGGGCAAAATCGCGGAGTCACCTAGTGCAG”, which binding signal is on record?
Answer: The binding signal was 19600 fluorescence intensity (a.u.).

Question: “ATCCCCGTGTTCTCCCCACACAAACCTTCGCGCCGCCCATCGGAGTCACCTAGTGCAG” was tested. Which binding signal did it give?
Answer: Its binding signal is 9540 fluorescence intensity (a.u.).

Question: Which binding signal does the source give for “CACCGCCGTCGCCTTCGTCCTCCCACCGTGGAAGCCTCGCCGGAGTCACCTAGTGCAG” here?
Answer: Its binding signal is 8480 fluorescence intensity (a.u.).

Question: Which binding signal does the source give for “ATAAACCTATTCATGTCGTATATTACTTATTAATTTCTCCCGGAGTCACCTAGTGCAG” here?
Answer: The binding signal was 9740 fluorescence intensity (a.u.).

Question: “TTAGACTTCTCGTCTCTCTTTGTGCTTGTGCTTAGTTGTCCGGAGTCACCTAGTGCAG” was tested. Which binding signal did it give?
Answer: The binding signal was 8160 fluorescence intensity (a.u.).

Question: “CTCGTCGTCGCCTCCGCTCCTTGCGCCATCTCGCGGCGCCCGGAGTCACCTAGTGCAG” was tested. Which binding signal did it give?
Answer: The binding signal was 9480 fluorescence intensity (a.u.).

Question: “TACAAACCTCAAGAAGCTCAGTGTCGCATCAGTTTGACTGCGGAGTCACCTAGTGCAG” was tested. Which binding signal did it give?
Answer: The binding signal was 8440 fluorescence intensity (a.u.).

Question: Which binding signal does the source give for “AAGTATATTATGTACCTTTTCTGGTATCCTTCCCTTTGAACGGAGTCACCTAGTGCAG” here?
Answer: The binding signal was 8600 fluorescence intensity (a.u.).

Question: “TTTGGTTTGGTTTGGTTTGATCCCGAGGAGGAGGAGGAGGCGGAGTCACCTAGTGCAG” was tested. Which binding signal did it give?
Answer: The binding signal was 10600 fluorescence intensity (a.u.).

Question: With “CATTTAATCTCCTCGTTACCGCTCAATTAACGCACCGATTCGGAGTCACCTAGTGCAG” as the sequence, how does the binding signal read?
Answer: The binding signal was 8880 fluorescence intensity (a.u.).

Question: How did the binding signal turn out when “CCTTTGTGTCATCGGTCATGCTGCTAATCCATTATATAATCGGAGTCACCTAGTGCAG” was run?
Answer: The binding signal was 8360 fluorescence intensity (a.u.).

Question: Which binding signal does the source give for “GAGATTTGGGATTGGTATGGGCCAGGTGTGATCTAACTTACGGAGTCACCTAGTGCAG” here?
Answer: Its binding signal is 8100 fluorescence intensity (a.u.).

Question: Which binding signal does the source give for “GCCCGCACCCGCACCACCGCCCACCACCACCACGCCACGGCGGAGTCACCTAGTGCAG” here?
Answer: The binding signal was 10600 fluorescence intensity (a.u.).

Question: For “CACGTGGTTTTCTTTTTTTAGCACCACATTACTTTCCTATCGGAGTCACCTAGTGCAG”, which binding signal is on record?
Answer: Its binding signal is 9090 fluorescence intensity (a.u.).

Question: “TATATTTCCAAAGGTTTGACTTTCTTTACGAGTACGGAGACGGAGTCACCTAGTGCAG” was tested. Which binding signal did it give?
Answer: Its binding signal is 10500 fluorescence intensity (a.u.).

Question: For “TTTATGATCCTTGCAATTTCTGCCATTCCATCTTAGAATTCGGAGTCACCTAGTGCAG”, which binding signal is on record?
Answer: The binding signal was 10100 fluorescence intensity (a.u.).

Question: With “CGAACAAGCTGATTAACATGCATGATTTCCTAGTATTTCCCGGAGTCACCTAGTGCAG” as the sequence, how does the binding signal read?
Answer: The binding signal was 9920 fluorescence intensity (a.u.).

Question: With “GAGTAACTTTTAATCCGAGCCATTTATGCACTTCAATTTTCGGAGTCACCTAGTGCAG” as the sequence, how does the binding signal read?
Answer: The binding signal was 10000 fluorescence intensity (a.u.).

Question: With “CTCGCTCGCTCGCGCACACACCACCCAACGGATTAACATGCGGAGTCACCTAGTGCAG” as the sequence, how does the binding signal read?
Answer: The binding signal was 8290 fluorescence intensity (a.u.).

Question: For “AATTTCCAGTCCCTACATATTTCCTTTTTTTTCCTGCACTCGGAGTCACCTAGTGCAG”, which binding signal is on record?
Answer: The binding signal was 10700 fluorescence intensity (a.u.).

Question: With “TGCCCTAGTATTTGTTTCATGAGTTGTGTCTTAATCAACACGGAGTCACCTAGTGCAG” as the sequence, how does the binding signal read?
Answer: The binding signal was 9620 fluorescence intensity (a.u.).

Question: With “CAAGTCAACCCGCACAGATCTCATGCCAGATGCCACCACGCGGAGTCACCTAGTGCAG” as the sequence, how does the binding signal read?
Answer: The binding signal was 8080 fluorescence intensity (a.u.).

Question: “GGTCGCTTTCCTGGCCCATTGTTGCGCCCGTCTTTGTCTCCGGAGTCACCTAGTGCAG” was tested. Which binding signal did it give?
Answer: The binding signal was 9050 fluorescence intensity (a.u.).

Question: “CCCCGCGCAGCGCAGACCATGGATGTGTACCTCGTTGTTCCGGAGTCACCTAGTGCAG” was tested. Which binding signal did it give?
Answer: Its binding signal is 9410 fluorescence intensity (a.u.).

Question: How did the binding signal turn out when “CTGGTCGTCGCTGCTCCGCGTGCCGGTCGGGGTGGGTGGGCGGAGTCACCTAGTGCAG” was run?
Answer: Its binding signal is 20100 fluorescence intensity (a.u.).

Question: How did the binding signal turn out when “TACCGCTGTTCTTTTTGTCGAGTTTTTTTGCAAGACTGAACGGAGTCACCTAGTGCAG” was run?
Answer: The binding signal was 8990 fluorescence intensity (a.u.).

Question: How did the binding signal turn out when “ATTTGTCCCTCCTTCACTTTCCTACTGGCTACTGCGTGATCGGAGTCACCTAGTGCAG” was run?
Answer: Its binding signal is 8960 fluorescence intensity (a.u.).

Question: Which binding signal does the source give for “GAGCCGCTGGCATCTGGGCCCCATCTTCTCGTCCCCAATCCGGAGTCACCTAGTGCAG” here?
Answer: The binding signal was 8370 fluorescence intensity (a.u.).

Question: With “GCAGGCAGGATGTTACTATGGCCACGTTTAGTTGGTTAGTCGGAGTCACCTAGTGCAG” as the sequence, how does the binding signal read?
Answer: Its binding signal is 8890 fluorescence intensity (a.u.).

Question: “CTCCACTGCTCTGATGCTCTCTCTCTCTCTCTCTTCACGCCGGAGTCACCTAGTGCAG” was tested. Which binding signal did it give?
Answer: The binding signal was 10800 fluorescence intensity (a.u.).

Question: “TTCCTCTCCCGCGACACCATCTTCGACCGCGTCCGGCTGCCGGAGTCACCTAGTGCAG” was tested. Which binding signal did it give?
Answer: Its binding signal is 9740 fluorescence intensity (a.u.).

Question: “GGCTATGTCTGTCTACCTAATGGTTTTCTGTTTTCTTGGTCGGAGTCACCTAGTGCAG” was tested. Which binding signal did it give?
Answer: Its binding signal is 9420 fluorescence intensity (a.u.).

Question: Which binding signal does the source give for “ATTTGGCAACATTCCCTGTATTTTTCCCTGTTCATTGTTCCGGAGTCACCTAGTGCAG” here?
Answer: Its binding signal is 8730 fluorescence intensity (a.u.).

Question: With “TTTTTTTCTGGGGTTGCTTAGAATGGTACTAACTATGATTCGGAGTCACCTAGTGCAG” as the sequence, how does the binding signal read?
Answer: The binding signal was 8900 fluorescence intensity (a.u.).

Question: Which binding signal does the source give for “AAAATTACACACAGCATGTACATTACGTCACACCTCATTCCGGAGTCACCTAGTGCAG” here?
Answer: The binding signal was 8240 fluorescence intensity (a.u.).

Question: For “ATATGCTCATTATTAACCATCTAGCCCATCGTTAATCTAGCGGAGTCACCTAGTGCAG”, which binding signal is on record?
Answer: Its binding signal is 9090 fluorescence intensity (a.u.).

Question: Which binding signal does the source give for “AATTAATCTAACACCCTGGCATCGACCGCCACTCACATATCGGAGTCACCTAGTGCAG” here?
Answer: The binding signal was 8870 fluorescence intensity (a.u.).

Question: Which binding signal does the source give for “GAGAGAGGACGGATGCCGAGGAGGCGTTAGCAATGTTGACCGGAGTCACCTAGTGCAG” here?
Answer: Its binding signal is 8250 fluorescence intensity (a.u.).

Question: With “AACGAACCTCTATAGCTATCCCTTGATAATTCCCTGCATCCGGAGTCACCTAGTGCAG” as the sequence, how does the binding signal read?
Answer: Its binding signal is 9520 fluorescence intensity (a.u.).
